# Measurements taken from PubChem BioAssay AID540276 (National Center for Advancing Translational Sciences (NCATS), 2011).
# Screen size: about 300,000 compounds; about 5,400 (1.8%) were called active. The shares of active, inactive and inconclusive entries below differ from those in the screen. Calls come from the whole dose curve; tested in HEK293 cells. Potencies beside an inconclusive call are fits to weak or partial responses and may not hold up.
# Assay: qHTS for inhibitors of binding or entry into cells for Marburg Virus
# Conditions: Marburg virus pseudotyped entry inhibition, cell reporter; activity change, negative = inhibition: at 37.8 µM (top of the series) unless noted
# % is set by controls: 0 for no effect and ±100 for the full control effect; potency is the fitted concentration of half-maximal effect.
SMILES,Potency,"activity change, negative = inhibition"
CCCCCCc1cc2cc(C(=O)NCc3ccccc3)c(=N)oc2cc1O,"inconclusive: 5.8 µM [inhibitor, partial curve, poor fit]",–
O=C(Oc1ccc(NC2=C(Cl)C(=O)c3ccccc3C2=O)cc1)c1ccc([N+](=O)[O-])cc1,–,inactive: 0.579%
CC(C)CN1C(=O)NC(NS(=O)(=O)c2ccc(N)cc2)(C(F)(F)F)C1=O (configuration not stated),"inconclusive: 20 µM [activator, single point]",–
COc1ccc([N+](=O)[O-])cc1C1NN=C(c2ccccc2O)S1 (configuration not stated),"inconclusive: 10.3 µM [inhibitor, partial curve, poor fit]",–
O=C(NCCN1CCN(Cc2ccccc2)CC1)c1cc2c(=O)[nH]c3ccccc3c2s1,"inconclusive: 16.4 µM [inhibitor, partial curve, poor fit]",–
O=C(OCc1cnc(Cl)s1)c1ccccc1Cl,–,inactive: 4.89%
COc1ccc(-c2nn(-c3ccccc3)cc2CNC(=O)c2cccc([N+](=O)[O-])c2)cc1,–,inactive: 3.5% [at 46.1 µM]
S=c1[nH]c2cc3c(cc2[nH]1)OCCO3,"inconclusive: 10 µM [inhibitor, partial curve, poor fit]",–
Nc1cc(C(=O)OCC(=O)N2CCCC2)ccc1Cl,–,inactive: 1.34%
COc1ccc(Nc2oc(-c3cccs3)nc2C#N)cc1,"inconclusive: 6.31 µM [activator, partial curve, poor fit]",–
CCOC(=O)c1ccc2[nH]c3c(c2c1)CCCC3C(=O)OCC (configuration not stated),–,inactive: -4.52%
Cc1ccc(C)c(C(=O)CN2C(=O)c3ccccc3S2(=O)=O)c1,"inconclusive: 6.51 µM [inhibitor, single point]",–
CCOc1ccc(NC(=O)CNS(=O)(=O)c2c(C)cc(C)cc2C)cc1,–,inactive: -8.16%
COC(=O)c1cc(-c2ccc(Br)cc2)n[nH]1,–,inactive: 15.1%
CCOc1ccccc1Nc1cc(C)c2cccc(C)c2n1,"inconclusive: 4.47 µM [inhibitor, partial curve]",–
Cc1nc2ccc(NC(=O)NCCO)cc2s1,–,inactive: 13%
Cc1ccc(-c2nn(C)c(=O)c3ccccc23)cc1CNC(=O)/C=C/c1ccccc1,"inconclusive: 5.01 µM [inhibitor, partial curve, poor fit]",–
C=CCn1c(=O)n(C)c2c(=O)n(C)c(=O)n(C)c21,–,inactive: 5.71% [at 46.1 µM]
COC(=O)c1ccc(NC(=O)CSc2nc(C)cc(C)c2C(=O)Nc2ccccc2)cc1,"inconclusive: 0.562 µM [inhibitor, full curve, poor fit]",–
Cn1c(NCCCN2CCOCC2)nc2c1c(=O)n(Cc1ccc(Cl)c(Cl)c1)c(=O)n2C,"inconclusive: 6.51 µM [inhibitor, single point]",–
O=C(N/N=C/c1ccc[nH]1)c1cccc(Br)c1,"inconclusive: 3.16 µM [inhibitor, single point]",–
CN(C)c1cccc(C(=O)NNC(=O)CN2C(=O)C3CC=CCC3C2=O)c1 (configuration not stated),"inconclusive: 0.891 µM [activator, full curve, poor fit]",–
CCc1ccc(C(=O)COC(=O)C(Cc2ccccc2)NC(=O)C2CCC(C)CC2)cc1 (configuration not stated),"inconclusive: 9.2 µM [inhibitor, partial curve, poor fit]",–
Cc1ccc(NC(=O)CSc2nc3ccccc3c3nc4ccccc4n23)cc1,active: 6.51 µM,–

SMILES,Potency,"activity change, negative = inhibition"
Cc1ccc(COC(=O)CN2C(=O)NC3(CCCCC3C)C2=O)cc1 (configuration not stated),–,inactive: -33.9% [at 46.1 µM]
CC(C(=O)Nc1ccccc1)N(C)CCOc1ccc(Br)cc1 (configuration not stated),"inconclusive: 12.6 µM [inhibitor, single point]",–
CC(=O)c1sc(N/N=C\c2ccc(C)cc2)nc1C,"inconclusive: 18.4 µM [inhibitor, single point]",–
CN(C(=O)c1ccccn1)c1nnc(-c2ccncc2)s1,–,inactive: 0.695%
Cc1sc2ncnc(N3CCC(C(=O)Nc4nnc(CC(C)C)s4)CC3)c2c1C,–,inactive: -11.3% [at 46.1 µM]
COC(=O)CC1Oc2ccccc2-n2cc(-c3ccc(C)cc3)nc21 (configuration not stated),"inconclusive: 6.31 µM [activator, partial curve, poor fit]",–
CCSc1nsc(NC(=O)Nc2cccc(F)c2)n1,"inconclusive: 10 µM [inhibitor, partial curve, poor fit]",–
COC(=O)C1(C(=O)OC)Cc2conc2[C@H]1c1ccccc1,inactive,–
Cc1ccc(-c2nnc(SCC#CCOC(=O)c3ccco3)o2)cc1,–,inactive: -6.09%
COc1ccc(C(CNC(=O)c2cccc(NS(=O)(=O)c3ccccc3)c2)N(C)C)cc1 (configuration not stated),"inconclusive: 2.82 µM [inhibitor, partial curve, poor fit]",–
CC(=O)c1sc(NC(=O)COc2ccc([N+](=O)[O-])cc2)nc1C,–,inactive: 20.3% [at 46.1 µM]
COc1cccc(CNCCSc2nnnn2C)c1OCc1ccccc1,"inconclusive: 35.5 µM [inhibitor, single point]",–
COc1ccc(NC(=O)CSc2nccc(C)n2)cc1,–,inactive: 10.9% [at 46.1 µM]
Cc1nn(Cc2ccc(Cl)c(Cl)c2)c(C)c1NC(=O)c1noc2c1CCc1ccccc1-2,"inconclusive: 31.6 µM [inhibitor, single point]",–
COc1ccc(/C=N\NC(=O)c2ccccc2F)cc1COc1ccc(F)cc1,"inconclusive: 10 µM [inhibitor, partial curve, poor fit]",–
CCc1ccc2c(c1)c(=O)c(S(=O)(=O)c1ccc(Cl)cc1)cn2CC,–,inactive: -3.43% [at 46.1 µM]
O=C(CC1(O)C(=O)N(CCc2ccccc2)c2ccc(Br)cc21)c1ccc(F)cc1 (configuration not stated),"inconclusive: 6.31 µM [inhibitor, full curve, poor fit]",–
CC(=O)C1=C(O)C(=O)N(CCN2CCOCC2)C1c1ccc(N(C)C)cc1 (configuration not stated),"inconclusive: 35.5 µM [activator, single point]",–
CSc1ccc(CNC(=O)C2CCCN(S(=O)(=O)N(C)c3ccc(F)cc3)C2)cc1 (configuration not stated),–,inactive: -7.25% [at 46.1 µM]
O=C1C2CCN(CC2)C1Cc1ccc(OCc2ccccc2)cc1 (configuration not stated),"inconclusive: 12.6 µM [inhibitor, partial curve, poor fit]",–
COc1ccc(OCc2nc(N)nc(Nc3ccccc3)n2)cc1,"inconclusive: 29.1 µM [inhibitor, partial curve, poor fit]",–
N#CCCN(C(=O)COC(=O)c1cccc(S(=O)(=O)N2CCCC2)c1)c1ccc(F)cc1,–,inactive: -6.29%
CC1CC(C)CN(C(=O)CSc2ncnc3sccc23)C1 (configuration not stated),–,inconclusive: 23.2% [activator]
COc1ccc(-c2nc3ccccc3n3c(-c4cccc(C)c4)c4c(=O)n(C)c(=O)n(C)c4c23)cc1,"inconclusive: 4.47 µM [inhibitor, single point]",–

SMILES,Potency,"activity change, negative = inhibition"
O=c1[nH]c(C2CCN(S(=O)(=O)c3ccc(C(F)(F)F)cc3)CC2)nc2c1nnn2Cc1ccccc1,"inconclusive: 35.5 µM [inhibitor, single point]",–
CCOC(=O)c1c(C)c(C(=O)Nc2ccc3c(c2)OCCO3)c(C)n1C,"inconclusive: 16.4 µM [inhibitor, single point]",–
C#CCSc1nnc(-c2cccc3ccccc23)o1,"inconclusive: 23.1 µM [inhibitor, single point]",–
CC1Cc2nc(SCC(=O)Nc3ccc4c(c3)OCO4)n(CCc3ccccc3)c(=O)c2S1 (configuration not stated),"inconclusive: 29.1 µM [inhibitor, single point]",–
OCCCNc1ncnc2[nH]ncc12,–,inactive: 21.8% [at 46.1 µM]
O=C(CSc1ccc(F)cc1)N1CCC(c2nc3ccccc3s2)CC1,"inconclusive: 20 µM [inhibitor, single point]",–
O=C(/C=C/c1cccs1)N1CCN(c2ccccc2)CC1,–,inactive: 6.98%
Cc1ccc(NC(=S)N2CCC(NC(=O)c3ccccc3)CC2)cc1,–,inactive: 7.52% [at 46.1 µM]
O=C(OCc1nnc(-c2ccc(Cl)cc2)o1)C12CC3CC(CC(O)(C3)C1)C2,–,inactive: 27.7% [at 46.1 µM]
CC(C)=CC(=O)Nc1ccc2c(c1)OCO2,–,inactive: -20.5%
Cc1cc(C(=O)Nc2ccc(S(=O)(=O)Nc3onc(C)c3C)cc2)c(C)o1,"inconclusive: 0.82 µM [activator, partial curve, poor fit]",–
COC(=O)N/N=C(\C)c1ccc(Br)cc1,"inconclusive: 1.26 µM [inhibitor, single point]",–
O=c1oc2c(O)cccc2cc1-c1nc2ccccc2[nH]1,"inconclusive: 0.282 µM [inhibitor, full curve, poor fit]",–
COc1ccc(C(C)NC(=O)CCc2ccccc2)cc1 (configuration not stated),–,inactive: -0.675%
O=C(Cc1ccccc1)NCC1CCCO1 (configuration not stated),–,inactive: -0.222%
COc1ccc(NC(=O)c2oc3ccccc3c2NC(=O)C2CCCO2)cc1OC (configuration not stated),"inconclusive: 4.47 µM [activator, single point]",–
CN(C)c1ccc(/C=N/NC(=O)c2ccccn2)cc1,"inconclusive: 6.31 µM [inhibitor, full curve, poor fit]",–
COC(=O)c1ccc(C(=O)NC2CCCc3c2cnn3-c2ccc(C)c(C)c2)cc1 (configuration not stated),"inconclusive: 1 µM [inhibitor, full curve, poor fit]",–
CCOc1ccc(C)cc1-n1nc2ccccc2n1,–,inactive: 10.7%
COc1ccc(-c2noc(CCCC(=O)Nc3cccnc3)n2)cc1OC,"inconclusive: 3.98 µM [inhibitor, partial curve]",–
Cc1ccc2c(=O)cc(C(=O)Nc3ccc(S(=O)(=O)N4CCC(C)CC4)cc3)oc2c1C,"inconclusive: 5.62 µM [activator, single point]",–
COc1ccccc1C(=O)Nc1nnc(-c2ccco2)s1,"inconclusive: 29.1 µM [inhibitor, single point]",–
CC(=O)OCC(=O)[C@H]1CC[C@H]2[C@@H]3CCC4=CC(=O)CC[C@]4(C)[C@H]3CC[C@]12C,–,inactive: 7.51%
Cc1ccc(CN2CCN(Cc3ccccc3C(F)(F)F)CC2)cc1,"inconclusive: 23.1 µM [inhibitor, partial curve, poor fit]",–

# Not a retest: an excerpt of the list.
SMILES,Potency,"activity change, negative = inhibition"
COc1ccc(C(C)NC(=O)CCc2ccccc2)cc1 (configuration not stated),–,inactive: -0.675%
O=C(Cc1ccccc1)NCC1CCCO1 (configuration not stated),–,inactive: -0.222%
COc1ccc(NC(=O)c2oc3ccccc3c2NC(=O)C2CCCO2)cc1OC (configuration not stated),"inconclusive: 4.47 µM [activator, single point]",–
CN(C)c1ccc(/C=N/NC(=O)c2ccccn2)cc1,"inconclusive: 6.31 µM [inhibitor, full curve, poor fit]",–
COC(=O)c1ccc(C(=O)NC2CCCc3c2cnn3-c2ccc(C)c(C)c2)cc1 (configuration not stated),"inconclusive: 1 µM [inhibitor, full curve, poor fit]",–
